The source of these data is patent publication CN103342750A.

Sequences of proteins named here, by UniProt entry; tags and fusion partners are left off. Residues count along the entry.
UniProt P04114, residues 28-4563: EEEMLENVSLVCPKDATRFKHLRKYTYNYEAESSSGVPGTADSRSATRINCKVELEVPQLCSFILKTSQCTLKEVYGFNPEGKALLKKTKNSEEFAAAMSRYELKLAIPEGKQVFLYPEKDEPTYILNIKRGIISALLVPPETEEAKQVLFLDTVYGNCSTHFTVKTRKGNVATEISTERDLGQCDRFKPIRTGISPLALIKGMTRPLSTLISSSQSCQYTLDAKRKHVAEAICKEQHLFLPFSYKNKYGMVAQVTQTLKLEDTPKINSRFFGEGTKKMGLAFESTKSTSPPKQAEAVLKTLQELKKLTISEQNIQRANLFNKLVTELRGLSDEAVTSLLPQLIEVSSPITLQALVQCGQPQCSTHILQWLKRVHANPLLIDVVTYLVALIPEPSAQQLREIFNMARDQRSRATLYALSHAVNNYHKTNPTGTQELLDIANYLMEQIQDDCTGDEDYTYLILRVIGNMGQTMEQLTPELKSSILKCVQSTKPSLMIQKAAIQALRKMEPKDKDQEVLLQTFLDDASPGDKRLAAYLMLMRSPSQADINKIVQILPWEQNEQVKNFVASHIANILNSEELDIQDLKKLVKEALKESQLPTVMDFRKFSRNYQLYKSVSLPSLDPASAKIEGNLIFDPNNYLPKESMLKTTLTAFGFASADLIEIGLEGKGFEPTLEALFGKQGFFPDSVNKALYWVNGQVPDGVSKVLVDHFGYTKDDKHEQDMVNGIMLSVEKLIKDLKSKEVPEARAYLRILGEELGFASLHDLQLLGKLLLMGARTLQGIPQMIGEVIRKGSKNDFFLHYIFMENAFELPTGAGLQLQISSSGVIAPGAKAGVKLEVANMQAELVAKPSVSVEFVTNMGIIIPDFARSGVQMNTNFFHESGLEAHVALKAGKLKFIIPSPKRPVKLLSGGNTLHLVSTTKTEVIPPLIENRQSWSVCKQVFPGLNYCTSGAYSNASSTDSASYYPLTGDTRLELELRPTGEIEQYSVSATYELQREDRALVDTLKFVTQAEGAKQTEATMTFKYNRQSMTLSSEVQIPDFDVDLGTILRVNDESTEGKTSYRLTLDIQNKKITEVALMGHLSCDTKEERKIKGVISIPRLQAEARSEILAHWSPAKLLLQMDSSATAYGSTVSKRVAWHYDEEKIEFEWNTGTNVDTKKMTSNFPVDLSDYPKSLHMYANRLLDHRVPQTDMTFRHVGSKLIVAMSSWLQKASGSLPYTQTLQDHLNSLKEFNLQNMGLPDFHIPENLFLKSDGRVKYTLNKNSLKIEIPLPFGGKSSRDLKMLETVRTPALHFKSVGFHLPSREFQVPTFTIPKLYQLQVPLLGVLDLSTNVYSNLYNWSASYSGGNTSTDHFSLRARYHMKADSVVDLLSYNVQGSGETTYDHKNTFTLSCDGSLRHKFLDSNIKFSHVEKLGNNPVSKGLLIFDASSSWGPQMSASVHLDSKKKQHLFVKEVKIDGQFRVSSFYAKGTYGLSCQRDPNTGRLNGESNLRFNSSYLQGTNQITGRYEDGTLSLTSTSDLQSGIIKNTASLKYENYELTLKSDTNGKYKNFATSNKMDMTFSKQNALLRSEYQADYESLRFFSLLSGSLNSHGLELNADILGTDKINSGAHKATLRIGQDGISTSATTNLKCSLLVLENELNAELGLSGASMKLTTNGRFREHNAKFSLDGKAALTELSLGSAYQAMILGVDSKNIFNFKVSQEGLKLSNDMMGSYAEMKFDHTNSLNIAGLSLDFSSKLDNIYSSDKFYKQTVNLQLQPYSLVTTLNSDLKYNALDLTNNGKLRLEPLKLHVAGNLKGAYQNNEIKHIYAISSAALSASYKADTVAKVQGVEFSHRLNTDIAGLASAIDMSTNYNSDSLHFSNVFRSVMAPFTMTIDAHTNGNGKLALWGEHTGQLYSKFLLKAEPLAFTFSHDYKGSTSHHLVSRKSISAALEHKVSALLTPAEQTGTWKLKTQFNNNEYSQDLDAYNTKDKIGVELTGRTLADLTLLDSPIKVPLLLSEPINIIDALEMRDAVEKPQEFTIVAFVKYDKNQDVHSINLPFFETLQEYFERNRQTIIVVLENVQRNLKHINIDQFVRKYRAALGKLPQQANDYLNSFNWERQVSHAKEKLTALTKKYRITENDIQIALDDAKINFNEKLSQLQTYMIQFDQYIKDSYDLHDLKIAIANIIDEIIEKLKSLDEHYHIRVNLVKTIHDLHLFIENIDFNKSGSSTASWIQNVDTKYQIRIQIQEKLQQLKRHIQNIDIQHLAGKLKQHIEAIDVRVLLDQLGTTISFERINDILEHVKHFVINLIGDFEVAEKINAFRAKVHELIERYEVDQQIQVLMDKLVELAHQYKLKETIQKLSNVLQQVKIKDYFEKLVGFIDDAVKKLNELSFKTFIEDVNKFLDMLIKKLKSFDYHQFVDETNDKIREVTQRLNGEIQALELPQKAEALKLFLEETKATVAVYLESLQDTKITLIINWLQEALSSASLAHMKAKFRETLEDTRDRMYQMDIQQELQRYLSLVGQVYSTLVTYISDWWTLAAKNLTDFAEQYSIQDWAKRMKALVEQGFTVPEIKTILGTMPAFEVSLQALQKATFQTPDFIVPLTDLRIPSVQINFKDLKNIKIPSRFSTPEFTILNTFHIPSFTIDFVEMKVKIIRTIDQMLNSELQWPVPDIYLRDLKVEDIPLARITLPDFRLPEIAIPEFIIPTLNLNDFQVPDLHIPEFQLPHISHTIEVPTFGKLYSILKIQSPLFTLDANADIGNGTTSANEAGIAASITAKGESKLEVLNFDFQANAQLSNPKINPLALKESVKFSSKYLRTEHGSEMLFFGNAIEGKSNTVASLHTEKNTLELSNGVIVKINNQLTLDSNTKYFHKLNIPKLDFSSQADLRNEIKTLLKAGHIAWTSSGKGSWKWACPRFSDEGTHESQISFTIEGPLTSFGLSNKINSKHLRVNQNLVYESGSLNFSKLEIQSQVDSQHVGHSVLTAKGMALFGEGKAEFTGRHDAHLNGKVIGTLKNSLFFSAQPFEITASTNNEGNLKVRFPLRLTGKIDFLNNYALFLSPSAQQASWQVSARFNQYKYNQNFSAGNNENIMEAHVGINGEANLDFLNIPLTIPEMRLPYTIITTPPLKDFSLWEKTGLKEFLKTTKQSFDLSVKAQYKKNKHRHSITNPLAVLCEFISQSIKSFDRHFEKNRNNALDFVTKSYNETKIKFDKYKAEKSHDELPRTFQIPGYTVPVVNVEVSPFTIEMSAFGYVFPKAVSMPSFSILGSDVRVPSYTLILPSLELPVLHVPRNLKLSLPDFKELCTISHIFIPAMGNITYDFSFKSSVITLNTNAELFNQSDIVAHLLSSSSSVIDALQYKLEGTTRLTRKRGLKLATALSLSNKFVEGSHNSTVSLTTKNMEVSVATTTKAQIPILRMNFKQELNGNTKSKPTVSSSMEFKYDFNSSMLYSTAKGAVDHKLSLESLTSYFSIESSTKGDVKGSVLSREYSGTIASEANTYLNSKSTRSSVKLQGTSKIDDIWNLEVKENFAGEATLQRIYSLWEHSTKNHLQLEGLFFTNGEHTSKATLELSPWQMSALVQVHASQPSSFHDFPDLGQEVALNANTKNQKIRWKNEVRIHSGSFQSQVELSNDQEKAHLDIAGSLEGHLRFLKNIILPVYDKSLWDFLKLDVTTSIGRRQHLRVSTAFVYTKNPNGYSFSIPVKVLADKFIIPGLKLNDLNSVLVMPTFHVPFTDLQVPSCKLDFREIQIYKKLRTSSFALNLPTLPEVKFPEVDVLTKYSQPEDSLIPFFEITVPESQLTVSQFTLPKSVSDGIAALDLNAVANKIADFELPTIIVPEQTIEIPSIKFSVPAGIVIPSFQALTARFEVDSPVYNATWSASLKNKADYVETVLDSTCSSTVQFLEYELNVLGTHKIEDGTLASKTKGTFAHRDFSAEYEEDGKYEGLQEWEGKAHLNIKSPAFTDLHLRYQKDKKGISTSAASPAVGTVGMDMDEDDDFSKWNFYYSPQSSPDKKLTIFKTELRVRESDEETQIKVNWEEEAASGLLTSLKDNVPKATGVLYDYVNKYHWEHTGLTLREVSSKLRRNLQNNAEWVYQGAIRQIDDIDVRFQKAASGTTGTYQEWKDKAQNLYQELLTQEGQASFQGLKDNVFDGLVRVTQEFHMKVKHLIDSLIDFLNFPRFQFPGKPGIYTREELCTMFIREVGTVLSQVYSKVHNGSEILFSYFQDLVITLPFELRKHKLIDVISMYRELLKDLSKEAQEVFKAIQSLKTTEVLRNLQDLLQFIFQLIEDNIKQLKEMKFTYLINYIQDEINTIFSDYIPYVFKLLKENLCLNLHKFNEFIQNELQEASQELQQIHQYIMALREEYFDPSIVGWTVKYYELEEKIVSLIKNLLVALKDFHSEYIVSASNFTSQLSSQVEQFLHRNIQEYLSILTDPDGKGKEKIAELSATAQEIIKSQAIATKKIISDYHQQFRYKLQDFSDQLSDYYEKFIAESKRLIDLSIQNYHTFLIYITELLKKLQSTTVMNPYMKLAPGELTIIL

Results are given in words; binding and its absence hold for the method and conditions named. Some binding calls cover weakened binding; strength is not graded here.

Substrate in assay [1]: 由人血液中提取的载脂蛋白B (human) (UniProt P04114)
Kind of assay: specificity ELISA on plate-coated apoB, with prealbumin and blank wells as controls, anti-HA detection, OD405.

Substrate in assay [2]: 由人血液中提取的载脂蛋白B (human) (UniProt P04114)
In words: ELISA of periplasmic extracts on plate-coated apoB, anti-HA detection; clones sequenced from positive wells (sample OD more than 3 times control OD). For orientation: An ELISA detects its analyte on a solid surface through an enzyme-linked reagent.

B1: 载脂蛋白B纳米抗体 (VHH链 SEQ ID NO:15) (VHH)
VHH: QVQLQESGGGSVQAGGSLRLSCVASGYSDRAVNMGWFRQAPGKDRDWVAAISRGGCLTYYADSVKGRFTISQDKAKNTVYLQMDSLKPEDTAIYYCGPGSSQVQITLSQNLVWGQGTQVTVSS
Regarding B1, the binding result in assay [1] and in assay [2] was “binds” throughout.
